# Measurements taken from patent publication US9340572B2, “Taccalonolide microtubule stabilizers” (THE BOARD OF REGENTS OF THE UNIVERSITY OF TEXAS SYSTEM, priority 2011, dated 2016).
# Some of these results come from one statement about several compounds together. At least one structure is not confirmed: it was looked up by name or label, or the drawing left a doubt.
# Tested on: HeLa cells
# Assay: Inhibition of cellular proliferation, SRB assay in HeLa cells
# Type: cell-based
# Protocol: The determination of IC50 values was performed on taccalonolide material after NMR analysis and subsequent lyophilization. Ethanol or DMSO was used as the vehicle for all cellular studies.
# The antiproliferative potencies of the taccalonolides were evaluated in HeLa cells using the SRB assay. Several new taccalonolides with low nanomoloar potency were identified, Table 1.
row,Compound,IC50
1,CC(=O)O[C@H]1[C@H]2[C@H]([C@@H]3[C@H]4OC(=O)[C@@](C)(O)[C@@]5(C)C(=O)C[C@@H](C)[C@@H]([C@@H]45)[C@@]3(C)[C@H]1OC(C)=O)[C@@H](O)C(=O)[C@H]1C[C@@H]3O[C@@H]3[C@H](OC(C)=O)[C@]21C [Taccalonolide AO],> 30 µM
2,CC(=O)O[C@@H]1[C@H]2[C@H]3[C@H]([C@H](OC(C)=O)[C@H](OC(C)=O)[C@]2(C)[C@@H]2[C@@H]1[C@]1(C)C(=C[C@H]2C)OC(=O)[C@@]1(C)O)[C@@]1(C)[C@@H](OC(C)=O)[C@@H](OC(C)=O)[C@H](Cl)C[C@]1(O)C(=O)[C@@H]3O [Taccalonolide AQ],> 30 µM
